Literature values as cited in patent US20070021438A1, “Itraconazole solution” (priority 2003, published 2007).

solubility in water: practically insoluble
Structure (SMILES): CCC(C)n1ncn(-c2ccc(N3CCN(c4ccc(OCC5COC(Cn6cncn6)(c6ccc(Cl)cc6Cl)O5)cc4)CC3)cc2)c1=O (stereo not shown) [Itraconazole]
